## Primary screen of a compound library

Amino acid sequences for entries named in this document (tags omitted).
UniProt P9WNZ1, whole entry: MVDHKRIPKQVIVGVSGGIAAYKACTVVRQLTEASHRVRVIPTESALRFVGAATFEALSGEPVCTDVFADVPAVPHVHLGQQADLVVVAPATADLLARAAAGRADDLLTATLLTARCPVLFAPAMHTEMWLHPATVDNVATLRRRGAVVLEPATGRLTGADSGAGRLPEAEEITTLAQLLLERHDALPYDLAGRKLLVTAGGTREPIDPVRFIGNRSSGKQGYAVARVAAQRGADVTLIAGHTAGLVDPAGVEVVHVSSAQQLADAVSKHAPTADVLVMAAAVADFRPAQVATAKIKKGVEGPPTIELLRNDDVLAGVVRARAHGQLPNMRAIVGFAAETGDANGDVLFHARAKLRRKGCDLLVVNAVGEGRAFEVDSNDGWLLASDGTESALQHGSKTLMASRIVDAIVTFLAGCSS

The values are deposited in ChEMBL (CHEMBL3988442, “University of Dundee, Small-Polar-MMV Screening Library” (2021)).

Leishmania in macrophages: 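Cell assay of Leishmania donovani living inside macrophages; the read-out is not stated. Concentration: 30 µM. Higher reads as stronger inhibition (inferred: compounds with an IC50 in retests scored well above the rest). About 69,000 compounds were tested under these conditions; 1.5% (about 1,000) showed 50% or more at least once.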
CoaBC: 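Enzyme assay of CoaBC with a phosphate dye (Biomol Green) read at 650 nm. Target: Coenzyme A biosynthesis protein CoaBC, Mycobacterium tuberculosis (UniProt P9WNZ1). Concentration: 30 µM. Direction is inferred from only a few compounds that gave an IC50; most scored high, so higher reads as stronger inhibition. Most strong results did not repeat in a second test. About 67,000 compounds were tested under these conditions; 0.06% (about 40) showed 50% or more at least once.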

The filed quantity is “Percent Effect” (%). The controls that fix the scale are not given in the record; negative values are as filed. Compounds were drawn at random from those tested, without regard to their results. Two or more numbers in one place are separate tests of the same structure; such repeats can differ widely. A dash means the value is not listed here; it may have been measured.

compound: O=C1CN(C(=O)c2cc3ccc(Br)cc3[nH]2)CCN1
Leishmania in macrophages: 12.72%
CoaBC: -1.75%

compound: CN(C)C(=O)COCc1cncc2c1CCN(Cc1cnn(C)c1)C2.O=C(O)C(F)(F)F.O=C(O)C(F)(F)F
Leishmania in macrophages: 20.54%

compound: Cc1cnc(N2C(=O)CSC2c2ccc(N(C)C)cc2)s1 (stereo not given)
Leishmania in macrophages: 31.92%
CoaBC: 2.908%

compound: Cc1ccsc1CN1CC[C@H]2O[C@H](C(=O)N3CCCO3)CC[C@H]21
CoaBC: 6.189%

compound: Cn1cccc1-c1cc(C(=O)N2CCCC2C(F)(F)F)[nH]n1 (stereo not given)
Leishmania in macrophages: 2.556%
CoaBC: 9.524%

compound: Cc1cn2c(n1)CCC(NC(=O)c1ccc(CS(C)(=O)=O)cc1)C2 (stereo not given)
Leishmania in macrophages: 7.011%
CoaBC: -2.66%

compound: Cc1nccc(CNC(=O)NCCC(=O)N2CCCc3ccccc32)n1
Leishmania in macrophages: 11.83%
CoaBC: -0.6369%

compound: c1csc(CN2CCC3(CCOCC3COCC3CC3)CC2)n1 (stereo not given)
CoaBC: 0.7317%

compound: Cc1cnc(C(=O)N2CCCN(Cc3csc(C)n3)CC2)cn1
Leishmania in macrophages: 11.76%
CoaBC: 11.83%

compound: CCCN1CCN(Cc2nccn2CC)C(C)C1 (stereo not given)
Leishmania in macrophages: 22.34%
CoaBC: 0.6211%

compound: CC(=O)c1cccc(NC(=O)Cn2cnc(-c3cccs3)cc2=O)c1
Leishmania in macrophages: 5.543% & 11.81%
CoaBC: -7.822%

compound: CCC(C)NC(=O)c1ccc(NC(=O)CCc2ccncc2)c(C)c1 (stereo not given)
Leishmania in macrophages: 5.825%
CoaBC: 1.72%

compound: [H][C@]12CC[C@]([H])(CN(C(=O)c3c[nH]c(=O)c(Cl)c3)C1)N(CC=C(C)C)C2
Leishmania in macrophages: -8.56%

compound: COc1ncccc1C(=O)NCC(C)Oc1cccnc1 (stereo not given)
Leishmania in macrophages: 9.011%
CoaBC: -5.33%

compound: Cl.Cl.Clc1cccc(C[C@@H]2NCCC[C@@H]2Nc2ccccc2)c1
Leishmania in macrophages: 98.87%

compound: Cc1ccsc1-c1nccn1CCN1CCCOC1=O
Leishmania in macrophages: 5.647%
CoaBC: 5.583%

compound: c1ccc(CN2CCc3ncnc(-c4cccnc4)c3CC2)nc1
CoaBC: 5.838%

compound: CCn1cc(NC(=O)NCC(c2cccs2)N(C)C)cn1 (stereo not given)
Leishmania in macrophages: 34.72%
CoaBC: -0.266%

compound: Cn1ncc(NC(=O)c2noc3c2CCCC3)c1C(=O)N1CCCCC1
Leishmania in macrophages: 15.38%
CoaBC: 1.595%

compound: CN1CCN(C(=O)c2cc3sccc3n2Cc2ccccc2F)CC1
Leishmania in macrophages: -25.27%
CoaBC: 0.9434%

compound: O=C(C1CCCN(CCc2ccc3c(c2)CCO3)C1)N1CCCC1 (stereo not given)
Leishmania in macrophages: -29.73%
CoaBC: -7.654%

compound: O=C(O)C(F)(F)F.O=C(c1c[nH]cn1)N1CCOCC2(C1)CN(c1ccccc1)C(=O)CO2 (stereo not given)
Leishmania in macrophages: 8.806%

compound: CCc1ccc(CC)c(NCC(=O)N2CCCC(NC(C)=O)C2)c1 (stereo not given)
Leishmania in macrophages: -14.93%
CoaBC: 5.992%

compound: CSCCC(Nc1nc(C)cc(C)n1)C(=O)NCC1CCOCC1 (stereo not given)
Leishmania in macrophages: 2.688%
CoaBC: 4.739%

compound: Cc1nc(CN2CCN(C(=O)c3scnc3C)CC2)cs1
Leishmania in macrophages: 38.43%
CoaBC: -3.008%

The first 2 entries again:

| compound | Leishmania in macrophages | CoaBC |
|---|---|---|
| `O=C1CN(C(=O)c2cc3ccc(Br)cc3[nH]2)CCN1` | 12.72% | -1.75% |
| `CN(C)C(=O)COCc1cncc2c1CCN(Cc1cnn(C)c1)C2.O=C(O)C(F)(F)F.O=C(O)C(F)(F)F` | 20.54% | - |